Values from PubChem BioAssay AID1259254 (NCATS, 2017).

Aim: 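Finding genes that stop cells copying their DNA twice in one cycle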 (primary screen)
Cell system: human HCT116 colorectal cancer cells
Knock-down reagent: single siRNA against human genes
Timing: 3 days
Measurement: 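Imaged Hoechst DNA stain sorts each cell into a cycle phase by DNA amount; per plate, G2 fraction set to 0% for non-targeting and 100% for GMNN siRNA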
Scale: G2 robust z-score and G2 cells, % of GMNN control: higher = more G2 cells, more excess DNA replication; raw share of cells in G2: higher = larger share of cells with G2 DNA content
Hit rule: 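An siRNA counts as active if its G2 robust z-score lies at least 5 MADs above the screen median; here such calls match roughly 38% of GMNN control or more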
This is a random part of about 59,000 reagents. Over the whole deposit, about 1,550 (2.6%) got an active call. 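G2 share is only a proxy for re-replication; each gene was hit by three separate siRNAs, and active genes were retested.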 Raw values vary from plate to plate and are shown uncorrected. A number with no mark means an inactive call. Not stated in the record: the amount of reagent.

gene knocked down	PubChem SID	G2 robust z-score	G2 cells, % of GMNN control	raw share of cells in G2 (%)
SH3BGRL	SID160716663	0.929	9.5	9.01
SH3BGRL	SID160716664	2.28	19	11.7
SH3BGRL	SID160733919	2.2	18.4	10
SDF2	SID160716521	1.02	10.2	9.3
SDF2	SID160716522	0.216	4.49	5.99
SDF2	SID160733737	0.591	7.13	5.93
OR4F6	SID160766548	4.47	34.4	15.6
OR4F6	SID160766550	0.432	6.01	6.02
OR4F6	SID160766551	-1.1	-4.77	2.59
LSM11	SID160757328	-0.00588	2.93	5.93
LSM11	SID160757329	0.0951	3.64	6.03
LSM11	SID160757330	-0.783	-2.54	4.74
LOC648149 (retired record)	SID160770287	-0.0625	2.53	4.73
LOC648149 (retired record)	SID160770288	-0.529	-0.751	2.95
LOC648149 (retired record)	SID160770289	-1.07	-4.59	1.59
PHAX	SID160741366	-0.972	-3.87	4.2
PHAX	SID160741367	0.595	7.15	6.89
PHAX	SID160741368	-1.19	-5.42	1.72
FAM27E5	SID160725003	0.538	6.75	6.1
FAM27E5	SID160725004	-0.0759	2.43	3.99
FAM27E5	SID160725005	0.49	6.41	5.22
PDGFC	SID160744733	-0.546	-0.871	4
PDGFC	SID160744734	1.65	14.6	11.4
PDGFC	SID160744735	-0.71	-2.03	2.39
MEST	SID160777166	-0.0473	2.63	6.48
MEST	SID160777167	-0.245	1.24	5.35
MEST	SID160777168	-0.849	-3.01	2.79
TMEM67	SID160753902	-0.662	-1.69	3.37
TMEM67	SID160753903	-0.273	1.04	3.33
TMEM67	SID160753904	1.44	13.1	7.07
MAMDC2	SID160762473	-0.827	-2.85	2.54
MAMDC2	SID160762474	0.199	4.37	4.63
MAMDC2	SID160762475	-1.13	-4.97	1.61
TMEM132D	SID160755868	-0.452	-0.215	4.01
TMEM132D	SID160755869	0.281	4.95	4.8
TMEM132D	SID160755870	-0.807	-2.71	1.03

In a second layout: 12 of the entries above.
{"gene knocked down":"PDGFC","PubChem SID":"SID160744734","G2 robust z-score":1.65,"G2 cells, % of GMNN control":14.6,"raw share of cells in G2 (%)":11.4}
{"gene knocked down":"PDGFC","PubChem SID":"SID160744735","G2 robust z-score":-0.71,"G2 cells, % of GMNN control":-2.03,"raw share of cells in G2 (%)":2.39}
{"gene knocked down":"MEST","PubChem SID":"SID160777166","G2 robust z-score":-0.0473,"G2 cells, % of GMNN control":2.63,"raw share of cells in G2 (%)":6.48}
{"gene knocked down":"MEST","PubChem SID":"SID160777167","G2 robust z-score":-0.245,"G2 cells, % of GMNN control":1.24,"raw share of cells in G2 (%)":5.35}
{"gene knocked down":"MEST","PubChem SID":"SID160777168","G2 robust z-score":-0.849,"G2 cells, % of GMNN control":-3.01,"raw share of cells in G2 (%)":2.79}
{"gene knocked down":"TMEM67","PubChem SID":"SID160753902","G2 robust z-score":-0.662,"G2 cells, % of GMNN control":-1.69,"raw share of cells in G2 (%)":3.37}
{"gene knocked down":"TMEM67","PubChem SID":"SID160753903","G2 robust z-score":-0.273,"G2 cells, % of GMNN control":1.04,"raw share of cells in G2 (%)":3.33}
{"gene knocked down":"TMEM67","PubChem SID":"SID160753904","G2 robust z-score":1.44,"G2 cells, % of GMNN control":13.1,"raw share of cells in G2 (%)":7.07}
{"gene knocked down":"MAMDC2","PubChem SID":"SID160762473","G2 robust z-score":-0.827,"G2 cells, % of GMNN control":-2.85,"raw share of cells in G2 (%)":2.54}
{"gene knocked down":"MAMDC2","PubChem SID":"SID160762474","G2 robust z-score":0.199,"G2 cells, % of GMNN control":4.37,"raw share of cells in G2 (%)":4.63}
{"gene knocked down":"MAMDC2","PubChem SID":"SID160762475","G2 robust z-score":-1.13,"G2 cells, % of GMNN control":-4.97,"raw share of cells in G2 (%)":1.61}
{"gene knocked down":"TMEM132D","PubChem SID":"SID160755868","G2 robust z-score":-0.452,"G2 cells, % of GMNN control":-0.215,"raw share of cells in G2 (%)":4.01}

The listing continues:
gene knocked down	PubChem SID	G2 robust z-score	G2 cells, % of GMNN control	raw share of cells in G2 (%)
PRKAR2B	SID160714922	1.03	10.2	8.57
PRKAR2B	SID160714924	-0.0208	2.82	5.08
PRKAR2B	SID160714925	1.19	11.3	8.87
DENND10P1	SID160724471	1.26	11.8	6.9
DENND10P1	SID160744529	0.0053	3	5.68
DENND10P1	SID160744530	1.05	10.3	8.42
TOX	SID160723012	4.54	34.9	21.1
TOX	SID160723013	-0.373	0.345	4.09
TOX	SID160723014	-0.945	-3.68	2.06
CFAP68	SID160734047	0.228	4.57	3.9
CFAP68	SID160747955	1.52	13.6	10.5
CFAP68	SID160747956	4.59	35.3	20.4
CTRB2	SID160725393	-1.02	-4.18	1.83
CTRB2	SID160725394	1.33	12.3	7.31
CTRB2	SID160767769	2.56	21	11.7
GLB1L3	SID160754763	-0.143	1.96	4.88
GLB1L3	SID160754764	-0.807	-2.71	2.52
GLB1L3	SID160754765	0.879	9.15	4.49
ZNF550	SID160759973	-0.841	-2.95	2.08
ZNF550	SID160759974	0.664	7.64	5.82
ZNF550	SID160759975	-0.127	2.07	4.25
STARD5	SID160750547	-0.214	1.46	6.04
STARD5	SID160750548	-1.12	-4.93	2.41
STARD5	SID160750549	1.35	12.5	9.4
BAIAP2L1	SID160744696	0.0887	3.59	5.76
BAIAP2L1	SID160744697	1.57	14	11.2
BAIAP2L1	SID160744698	-0.769	-2.44	2.26
GARIN1B	SID160752603	-0.411	0.0782	4.13
GARIN1B	SID160752604	-1.11	-4.85	2.02
GARIN1B	SID160752605	-0.675	-1.78	1.86
SLC5A4	SID160716845	-1.77	-9.52	2.48
SLC5A4	SID160716846	-0.546	-0.871	4.25
SLC5A4	SID160716847	-0.701	-1.96	3.31
TMEM132B	SID160755001	1.69	14.9	10.1
TMEM132B	SID160755002	-0.995	-4.03	2.13
TMEM132B	SID160755003	-0.142	1.97	2.39
GIMAP2	SID160737725	2.22	18.6	11.4
GIMAP2	SID160737726	1.27	11.9	9.1
GIMAP2	SID160737727	1.1	10.7	7.05
FBF1	SID160753179	0.2	4.38	5.94
FBF1	SID160753180	0.13	3.88	4.22
FBF1	SID160753181	-0.289	0.933	3.22
EIF1AD	SID160752055	-0.598	-1.24	3.7
EIF1AD	SID160752056	-0.498	-0.535	3.3
EIF1AD	SID160752057	-0.795	-2.63	1.61
NUDT1	SID160731250	0.0885	3.59	4.38
NUDT1	SID160777526	1.15	11	9.85
NUDT1	SID160777527	3.5	27.6	16
RPS18P10	SID160734510	2.72	22.1	11.7
RPS18P10	SID160772622	0.454	6.16	6.29
RPS18P10	SID160772623	-0.215	1.46	3.79
